Source: paper PMC12124498
No constants are given. Whether binding was seen depends on the method and setting. Binding seen in cells or lysates may run through a third protein. These calls come from enrichment with a bait or labelling near it, and not all partners need be listed.

By UniProt entry, the sequences of proteins in these tests, tags left out.
UniProt P26368: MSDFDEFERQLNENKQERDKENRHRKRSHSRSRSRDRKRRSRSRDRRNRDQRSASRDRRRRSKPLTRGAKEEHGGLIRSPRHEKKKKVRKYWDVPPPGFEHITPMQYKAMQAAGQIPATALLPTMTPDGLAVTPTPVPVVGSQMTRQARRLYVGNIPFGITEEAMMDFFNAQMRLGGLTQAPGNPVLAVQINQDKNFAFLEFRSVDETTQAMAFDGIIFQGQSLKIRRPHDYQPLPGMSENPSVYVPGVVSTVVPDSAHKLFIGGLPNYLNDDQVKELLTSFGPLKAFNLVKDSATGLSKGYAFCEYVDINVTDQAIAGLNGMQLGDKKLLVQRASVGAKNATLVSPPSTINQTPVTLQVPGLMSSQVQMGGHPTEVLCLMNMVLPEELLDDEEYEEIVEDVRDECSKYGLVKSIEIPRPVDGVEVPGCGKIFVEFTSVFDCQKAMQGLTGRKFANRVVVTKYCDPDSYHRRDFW

Target: U2AF2-TurboID-HA (human) (UniProt P26368)
Experiment: proximity labelling; U2AF2-TurboID-HA induced with doxycycline for 4 h in pluripotent hiPSC; biotinylated proteins purified on streptavidin magnetic beads, LC-MS with label-free quantification; hits: Log2ΔLFQ >= 2 and p <= 0.05, pluripotent against mesoderm U2AF2-TurboID samples

Row | binding | Binder
1 | binds | OSTC (protein, UniProt Q9NRP0 1-149) METLYRVPFLVLECPNLKLKKPPWLHMPSAMTVYALVVVSYFLITGGIIYDVIVEPPSVGSMTDEHGHQRPVAFLAYRVNGQYIMEGLASSFLFTMGGLGFIILDRSNAPNIPKLNRFLLLFIGFVCVLLSFFMARVFMRMKLPGYLMG
2 | binds | TMED9 (protein, UniProt Q9BVK6 38-235) LYFHIGETEKKCFIEEIPDETMVIGNYRTQLYDKQREEYQPATPGLGMFVEVKDPEDKVILARQYGSEGRFTFTSHTPGEHQICLHSNSTKFSLFAGGMLRVHLDIQVGEHANDYAEIAAKDKLSELQLRVRQLVEQVEQIQKEQNYQRWREERFRQTSESTNQRVLWWSILQTLILVAIGVWQMRHLKSFFEAKKLV
3 | binds | NUDCD1 (protein, UniProt Q96RS6 1-583) MEVAANCSLRVKRPLLDPRFEGYKLSLEPLPCYQLELDAAVAEVKLRDDQYTLEHMHAFGMYNYLHCDSWYQDSVYYIDTLGRIMNLTVMLDTALGKPREVFRLPTDLTACDNRLCASIHFSSSTWVTLSDGTGRLYVIGTGERGNSASEKWEIMFNEELGDPFIIIHSISLLNAEEHSIATLLLRIEKEELDMKGSGFYVSLEWVTISKKNQDNKKYEIIKRDILRGKSVPHYAAIEPDGNGLMIVSYKSLTFVQAGQDLEENMDEDISEKIKEPLYYWQQTEDDLTVTIRLPEDSTKEDIQIQFLPDHINIVLKDHQFLEGKLYSSIDHESSTWIIKESNSLEISLIKKNEGLTWPELVIGDKQGELIRDSAQCAAIAERLMHLTSEELNPNPDKEKPPCNAQELEECDIFFEESSSLCRFDGNTLKTTHVVNLGSNQYLFSVIVDPKEMPCFCLRHDVDALLWQPHSSKQDDMWEHIATFNALGYVQASKRDKKFFACAPNYSYAALCECLRRVFIYRQPAPMSTVLYNRKEGRQVGQVAKQQVASLETNDPILGFQATNERLFVLTTKNLFLIKVNTEN
4 | binds | STT3A (protein, UniProt P46977 1-705) MTKFGFLRLSYEKQDTLLKLLILSMAAVLSFSTRLFAVLRFESVIHEFDPYFNYRTTRFLAEEGFYKFHNWFDDRAWYPLGRIIGGTIYPGLMITSAAIYHVLHFFHITIDIRNVCVFLAPLFSSFTTIVTYHLTKELKDAGAGLLAAAMIAVVPGYISRSVAGSYDNEGIAIFCMLLTYYMWIKAVKTGSICWAAKCALAYFYMVSSWGGYVFLINLIPLHVLVLMLTGRFSHRIYVAYCTVYCLGTILSMQISFVGFQPVLSSEHMAAFGVFGLCQIHAFVDYLRSKLNPQQFEVLFRSVISLVGFVLLTVGALLMLTGKISPWTGRFYSLLDPSYAKNNIPIIASVSEHQPTTWSSYYFDLQLLVFMFPVGLYYCFSNLSDARIFIIMYGVTSMYFSAVMVRLMLVLAPVMCILSGIGVSQVLSTYMKNLDISRPDKKSKKQQDSTYPIKNEVASGMILVMAFFLITYTFHSTWVTSEAYSSPSIVLSARGGDGSRIIFDDFREAYYWLRHNTPEDAKVMSWWDYGYQITAMANRTILVDNNTWNNTHISRVGQAMASTEEKAYEIMRELDVSYVLVIFGGLTGYSSDDINKFLWMVRIGGSTDTGKHIKENDYYTPTGEFRVDREGSPVLLNCLMYKMCYYRFGQVYTEAKRPPGFDRVRNAEIGNKDFELDVLEEAYTTEHWLVRIYKVKDLDNRGLSRT
5 | binds | RDH11 (protein, UniProt Q8TC12 1-318) MVELMFPLLLLLLPFLLYMAAPQIRKMLSSGVCTSTVQLPGKVVVVTGANTGIGKETAKELAQRGARVYLACRDVEKGELVAKEIQTTTGNQQVLVRKLDLSDTKSIRAFAKGFLAEEKHLHVLINNAGVMMCPYSKTADGFEMHIGVNHLGHFLLTHLLLEKLKESAPSRIVNVSSLAHHLGRIHFHNLQGEKFYNAGLAYCHSKLANILFTQELARRLKGSGVTTYSVHPGTVQSELVRHSSFMRWMWWLFSFFIKTPQQGAQTSLHCALTEGLEILSGNHFSDCHVAWVSAQARNETIARRLWDVSCDLLGLPID
